{
  "sequences": {"note": "The chains behind the UniProt entries cited, without tags or fusion partners.", "UniProt O14980": "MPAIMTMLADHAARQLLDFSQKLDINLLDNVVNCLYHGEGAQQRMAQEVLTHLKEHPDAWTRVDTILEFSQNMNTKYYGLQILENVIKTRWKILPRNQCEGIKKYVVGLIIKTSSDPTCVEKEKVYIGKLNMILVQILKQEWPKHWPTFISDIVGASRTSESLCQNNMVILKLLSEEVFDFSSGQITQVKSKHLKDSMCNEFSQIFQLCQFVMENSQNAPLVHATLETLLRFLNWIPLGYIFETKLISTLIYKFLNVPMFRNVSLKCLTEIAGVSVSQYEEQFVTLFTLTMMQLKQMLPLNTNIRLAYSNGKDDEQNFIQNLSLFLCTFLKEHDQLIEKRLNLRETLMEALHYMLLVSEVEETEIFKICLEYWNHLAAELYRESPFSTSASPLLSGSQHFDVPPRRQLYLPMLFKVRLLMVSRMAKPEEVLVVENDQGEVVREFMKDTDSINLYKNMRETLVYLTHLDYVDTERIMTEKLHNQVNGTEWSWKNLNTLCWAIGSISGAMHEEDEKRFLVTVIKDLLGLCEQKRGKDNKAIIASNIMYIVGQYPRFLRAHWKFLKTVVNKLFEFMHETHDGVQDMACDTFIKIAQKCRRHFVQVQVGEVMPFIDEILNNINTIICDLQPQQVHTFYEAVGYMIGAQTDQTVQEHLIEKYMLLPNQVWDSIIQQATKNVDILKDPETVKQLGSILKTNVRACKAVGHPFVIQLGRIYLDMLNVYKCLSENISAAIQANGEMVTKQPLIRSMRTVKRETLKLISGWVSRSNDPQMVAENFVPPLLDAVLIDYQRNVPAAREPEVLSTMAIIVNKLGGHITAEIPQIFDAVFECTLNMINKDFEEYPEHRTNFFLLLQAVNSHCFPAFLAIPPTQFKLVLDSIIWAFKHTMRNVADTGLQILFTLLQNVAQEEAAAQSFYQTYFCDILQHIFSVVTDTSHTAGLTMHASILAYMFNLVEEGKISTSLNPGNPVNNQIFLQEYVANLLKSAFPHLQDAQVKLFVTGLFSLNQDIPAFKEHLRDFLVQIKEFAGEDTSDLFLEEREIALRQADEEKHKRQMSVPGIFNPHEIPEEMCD"},
  "source": "paper PMC10208891",
  "molecules": {"B1": {"name": "HA-OGT (O-GlcNAc transferase) (enzyme, UniProt O15294 1-1046)", "chain": "MASSVGNVADSTEPTKRMLSFQGLAELAHREYQAGDFEAAERHCMQLWRQEPDNTGVLLLLSSIHFQCRRLDRSAHFSTLAIKQNPLLAEAYSNLGNVYKERGQLQEAIEHYRHALRLKPDFIDGYINLAAALVAAGDMEGAVQAYVSALQYNPDLYCVRSDLGNLLKALGRLEEAKACYLKAIETQPNFAVAWSNLGCVFNAQGEIWLAIHHFEKAVTLDPNFLDAYINLGNVLKEARIFDRAVAAYLRALSLSPNHAVVHGNLACVYYEQGLIDLAIDTYRRAIELQPHFPDAYCNLANALKEKGSVAEAEDCYNTALRLCPTHADSLNNLANIKREQGNIEEAVRLYRKALEVFPEFAAAHSNLASVLQQQGKLQEALMHYKEAIRISPTFADAYSNMGNTLKEMQDVQGALQCYTRAIQINPAFADAHSNLASIHKDSGNIPEAIASYRTALKLKPDFPDAYCNLAHCLQIVCDWTDYDERMKKLVSIVADQLEKNRLPSVHPHHSMLYPLSHGFRKAIAERHGNLCLDKINVLHKPPYEHPKDLKLSDGRLRVGYVSSDFGNHPTSHLMQSIPGMHNPDKFEVFCYALSPDDGTNFRVKVMAEANHFIDLSQIPCNGKAADRIHQDGIHILVNMNGYTKGARNELFALRPAPIQAMWLGYPGTSGALFMDYIITDQETSPAEVAEQYSEKLAYMPHTFFIGDHANMFPHLKKKAVIDFKSNGHIYDNRIVLNGIDLKAFLDSLPDVKIVKMKCPDGGDNADSSNTALNMPVIPMNTIAEAVIEMINRGQIQITINGFSISNGLATTQINNKAATGEEVPRTIIVTTRSQYGLPEDAIVYCNFNQLYKIDPSTLQMWANILKRVPNSVLWLLRFPAVGEPNIQQYAQNMGLPQNRIIFSPVAPKEEHVRRGQLADVCLDTPLCNGHTTGMDVLWAGTPMVTMPGETLASRVAASQLTCLGCLELIAKNRQEYEDIAVKLGTDLEYLKKVRGKVWKQRISSPLFNTKQYTMELERLYLQMWEHYAAGNKPDHMIKPVEVTESA"}, "B2": {"name": "endogenous YTHDF1 (protein, UniProt Q9BYJ9 1-559)", "chain": "MSATSVDTQRTKGQDNKVQNGSLHQKDTVHDNDFEPYLTGQSNQSNSYPSMSDPYLSSYYPPSIGFPYSLNEAPWSTAGDPPIPYLTTYGQLSNGDHHFMHDAVFGQPGGLGNNIYQHRFNFFPENPAFSAWGTSGSQGQQTQSSAYGSSYTYPPSSLGGTVVDGQPGFHSDTLSKAPGMNSLEQGMVGLKIGDVSSSAVKTVGSVVSSVALTGVLSGNGGTNVNMPVSKPTSWAAIASKPAKPQPKMKTKSGPVMGGGLPPPPIKHNMDIGTWDNKGPVPKAPVPQQAPSPQAAPQPQQVAQPLPAQPPALAQPQYQSPQQPPQTRWVAPRNRNAAFGQSGGAGSDSNSPGNVQPNSAPSVESHPVLEKLKAAHSYNPKEFEWNLKSGRVFIIKSYSEDDIHRSIKYSIWCSTEHGNKRLDSAFRCMSSKGPVYLLFSVNGSGHFCGVAEMKSPVDYGTSAGVWSQDKWKGKFDVQWIFVKDVPNNQLRHIRLENNDNKPVTNSRDTQEVPLEKAKQVLKIISSYKHTTSIFDDFAHYEKRQEEEEVVRKERQSRNKQ"}, "B3": {"name": "recombinant His-OGT (enzyme, UniProt O15294 1-1046)", "chain": "B1 chain"}},
  "key": {"[1]": {"target": "T1, endogenous YTHDF1 (human (endogenous in HeLa)) (UniProt Q9BYJ9)", "T1 sequence": "B2 chain", "assay": "co-IP; cell lysates immunoprecipitated with anti-YTHDF1 antibodies; endogenous proteins"}, "SFB-YTHDF1-WT": {"target": "T2, SFB-YTHDF1-WT (UniProt Q9BYJ9)", "T2 sequence": "B2 chain", "assay": "co-IP; cells transfected with SFB-YTHDF1 (WT, AFA or 4A) and HA-CRM1; some samples treated with KPT-330 (Crm1 inhibitor, 5 uM, 24 h), TMG plus glucose, or acetyl-5S-GlcNAc (OGT inhibitor, 100 uM, 24 h)"}, "[2]": {"target": "T3, recombinant glutathione-S-transferase-YTHDF1 (UniProt Q9BYJ9)", "T3 sequence": "B2 chain", "assay": "pull-down; lysates of 293T cells transfected with HA-OGT incubated with recombinant GST-YTHDF1; only the target purified"}, "[3]": {"target": "T4, Flag-YTHDF1 (YTH domain family 1) (UniProt Q9BYJ9)", "T4 sequence": "B2 chain", "assay": "co-IP; 293T cells transfected with Flag-YTHDF1 and HA-OGT; lysates immunoprecipitated and immunoblotted"}, "[4]": {"target": "T5, endogenous OGT (O-GlcNAc transferase) (human (endogenous in HeLa)) (UniProt O15294)", "T5 sequence": "B1 chain", "assay": "co-IP; HeLa cell lysates immunoprecipitated with anti-OGT antibodies; endogenous proteins"}, "[5]": {"target": "T3, recombinant glutathione-S-transferase-YTHDF1", "assay": "pull-down; recombinant His-OGT and GST-YTHDF1 proteins incubated; both purified"}},
  "note": "No constants are given. Whether binding was seen depends on the method and setting. For part of these data: Binding seen in cells or lysates may run through a third protein. Some entries that bind do so weakly or less than the wild type. For part of these data: Sequences can lack the tags named with a protein.",
  "data": [
    {"molecule": "endogenous Crm1 (exportin 1) (from UniProt O14980 1-1071)", "values": [
      {"measurement": "binding", "setting": "[1]", "value": "binds"}
    ]},
    {"molecule": "HA-CRM1 (exportin 1) (from UniProt O14980 1-1071)", "values": [
      {"measurement": "binding", "setting": "SFB-YTHDF1-WT", "value": "binds"}
    ]},
    {"molecule": "B1", "values": [
      {"measurement": "binding", "setting": "[2]", "value": "binds"},
      {"measurement": "binding", "setting": "[3]", "value": "binds"}
    ]},
    {"molecule": "B2", "values": [
      {"measurement": "binding", "setting": "[4]", "value": "binds"}
    ]},
    {"molecule": "B3", "values": [
      {"measurement": "binding", "setting": "[5]", "value": "binds"}
    ]}
  ]
}
